At least one structure is not confirmed: it was looked up by name or label, or the drawing left a doubt.
Key:
[1] = tested on: G-quadruplex of oligonucleotide GGGTTAGGGTTAGGGTTAGGG (3.5 repeats of the human telomereic motif); assay: G-quadruplex stabilizing activity, fluorescence Tm (FAM+DABCYL oligonucleotide); format: binding
Text: The G-quadruplex stabilizing activity may be determined by a method using the formation of a complex with fluorescein of which the experimental protocol is described below.
All the nucleotides, modified or otherwise, were synthesized by Eurogentec SA, Seraing, Belgium. The oligonucleotide FAM+DABCYL carries the catalogue reference OL-0371-0802. It has the sequence: […] corresponding to 3.5 repeats of the human telomereic motif (strand rich in G). The fluorescein is attached to the 5′ end, the DABCYL to the 3′ end, by the chemical arms described by Eurogentec. The concentration of the samples is checked by spectrophotometry, recording the absorbance spectrum between 220 and 700 nm and using the molar extinction coefficient provided by the supplier. […]
All the measurements of fluorescence were carried out on a Spex Fluorolog DM1B apparatus, using an excitation line width of 1.8 nm and an emission line width of 4.5 nm. […] The oligonucleotide alone was analysed at 20, 30, 40, 50, 60, 70 and 80° C. The emission spectra are recorded using an excitation wavelength of 470 nm. The excitation spectra are recorded using either 515 nm or 588 nm as emission wavelength. […] This juxtaposition causes an already-described phenomenon of extinction of fluorescence which is used for “molecular beacons”. […]

[2] = tested on: human telomerease (HL60 cell extract); assay: Antitelomerease activity: extension of oligonucleotide TS followed by PCR amplification, with HL60 extract; format: biochemical; conditions: read-out: TRAP IC50
Protocol: The antitelomerease biological activity is determined by the following experimental protocol:
The leukaemia line HL60 is obtained from ATCC (American Type Culture Collection, Rockville, USA). The cells are cultured in suspension in RPMI 1640 medium containing L-glutamine at 2 mM, penicillin 200 U/ml, streptomycin 200 μg/ml, gentamycin 50 μg/ml and supplemented with 10% heat-inactivated foetal calf serum.
An aliquot of 10^5 cells is centrifuged at 3000×G and the supernatant discarded. […]
The samples are then analysed by electrophoresis on 12% acrylamide gel in a 1×TBE buffer for 1 hour at a voltage of 200 volts, with the aid of a Novex electrophoresis system. […]
The analysis and the quantification of the reaction products are carried out with the aid of an InstantImager apparatus (Pacard).
For each compound concentration tested, the results are expressed as percentage inhibition of the reaction and calculated from the untreated enzymatic control and from the enzyme-free sample (blank) according to the following formula: (compound value−blank value/enzymatic control value−blank value)×100. […]
A compound is considered to be active as an antitelomerease agent when the quantity inhibiting 50% of the telomerease reaction is in particular less than 5 μM.

## Cc1cc(N(C)C)c2cc(Nc3nc(Nc4ccc5nc(C)cc(N(C)C)c5c4)nc(-c4ccccc4)n3)ccc2n1 [Example 134, 2,4-bis(4-dimethylamino-2-methylquinolin-6-yl)amino-6-phenyl-[1,3,5]triazine]
[1]
  G4 delta Tm: 8 °C
[2]
  IC50: 300 nM

From patent publication US6887873B2, “Triazine derivatives and their application as antitelomerase agents” (Aventis Pharma S.A., priority 2001, dated 2005)
